Source: article PMC8884900
No constants are given. Whether binding was seen depends on the method and setting. Binding seen in cells or lysates may run through a third protein. Some entries that bind do so weakly or less than the wild type.

The chains behind the UniProt entries cited, without tags or fusion partners. Where a name states a change or a piece, a line headed by the entry shows the natural chain unless it says otherwise. A line that says so, or that is headed by a name, gives the form on record, which may keep a tag or linker. Residues count along the entry.
UniProt P05067, residues 18-770: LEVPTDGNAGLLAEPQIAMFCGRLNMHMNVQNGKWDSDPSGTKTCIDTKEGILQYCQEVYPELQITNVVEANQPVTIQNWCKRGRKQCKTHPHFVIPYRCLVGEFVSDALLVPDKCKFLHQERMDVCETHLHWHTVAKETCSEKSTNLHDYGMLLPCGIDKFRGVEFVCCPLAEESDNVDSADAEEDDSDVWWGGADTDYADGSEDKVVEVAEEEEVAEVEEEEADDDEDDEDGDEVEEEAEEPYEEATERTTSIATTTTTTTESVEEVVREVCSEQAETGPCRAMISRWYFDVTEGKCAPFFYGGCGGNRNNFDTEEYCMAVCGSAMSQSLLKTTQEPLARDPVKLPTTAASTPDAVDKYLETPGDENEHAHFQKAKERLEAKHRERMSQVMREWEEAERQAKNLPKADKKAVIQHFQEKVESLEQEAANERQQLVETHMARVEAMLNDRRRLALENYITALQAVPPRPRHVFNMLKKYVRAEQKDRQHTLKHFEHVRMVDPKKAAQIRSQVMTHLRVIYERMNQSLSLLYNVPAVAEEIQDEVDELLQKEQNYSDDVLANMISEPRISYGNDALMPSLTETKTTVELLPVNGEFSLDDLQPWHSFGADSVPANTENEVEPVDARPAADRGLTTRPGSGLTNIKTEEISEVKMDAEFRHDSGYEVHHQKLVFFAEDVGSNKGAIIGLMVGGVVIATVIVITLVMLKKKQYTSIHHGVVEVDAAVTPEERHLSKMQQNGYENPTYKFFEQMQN
UniProt Q9UHP3: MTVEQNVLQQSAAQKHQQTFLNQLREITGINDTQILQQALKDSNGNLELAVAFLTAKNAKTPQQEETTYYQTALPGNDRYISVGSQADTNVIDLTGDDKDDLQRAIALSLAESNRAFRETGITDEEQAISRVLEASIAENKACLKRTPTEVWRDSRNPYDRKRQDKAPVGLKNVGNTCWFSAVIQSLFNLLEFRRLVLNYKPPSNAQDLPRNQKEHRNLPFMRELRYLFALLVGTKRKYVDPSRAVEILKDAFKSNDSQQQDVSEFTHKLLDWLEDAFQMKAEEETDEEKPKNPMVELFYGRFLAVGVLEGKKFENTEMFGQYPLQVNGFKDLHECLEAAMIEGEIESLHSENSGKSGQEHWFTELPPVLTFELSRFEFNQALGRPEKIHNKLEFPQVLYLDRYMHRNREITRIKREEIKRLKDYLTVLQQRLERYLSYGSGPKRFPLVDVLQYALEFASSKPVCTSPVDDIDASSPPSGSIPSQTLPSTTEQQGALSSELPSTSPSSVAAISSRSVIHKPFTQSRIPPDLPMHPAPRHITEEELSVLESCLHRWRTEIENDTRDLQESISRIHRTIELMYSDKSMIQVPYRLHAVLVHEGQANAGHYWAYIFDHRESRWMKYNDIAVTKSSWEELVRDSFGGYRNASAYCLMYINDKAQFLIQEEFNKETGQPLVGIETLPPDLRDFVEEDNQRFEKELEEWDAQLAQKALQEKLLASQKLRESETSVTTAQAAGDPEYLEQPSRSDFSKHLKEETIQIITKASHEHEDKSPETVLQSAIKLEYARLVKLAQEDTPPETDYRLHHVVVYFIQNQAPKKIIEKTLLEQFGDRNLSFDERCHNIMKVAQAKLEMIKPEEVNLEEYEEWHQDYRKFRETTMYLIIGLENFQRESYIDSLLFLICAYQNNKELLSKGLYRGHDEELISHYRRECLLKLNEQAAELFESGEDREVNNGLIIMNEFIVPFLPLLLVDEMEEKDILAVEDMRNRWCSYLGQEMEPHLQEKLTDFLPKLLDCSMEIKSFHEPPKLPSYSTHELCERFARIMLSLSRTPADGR
His-tagged USP25a catalytic domain: residues 157-706 of Q9UHP3
UniProt P56817, residues 46-501: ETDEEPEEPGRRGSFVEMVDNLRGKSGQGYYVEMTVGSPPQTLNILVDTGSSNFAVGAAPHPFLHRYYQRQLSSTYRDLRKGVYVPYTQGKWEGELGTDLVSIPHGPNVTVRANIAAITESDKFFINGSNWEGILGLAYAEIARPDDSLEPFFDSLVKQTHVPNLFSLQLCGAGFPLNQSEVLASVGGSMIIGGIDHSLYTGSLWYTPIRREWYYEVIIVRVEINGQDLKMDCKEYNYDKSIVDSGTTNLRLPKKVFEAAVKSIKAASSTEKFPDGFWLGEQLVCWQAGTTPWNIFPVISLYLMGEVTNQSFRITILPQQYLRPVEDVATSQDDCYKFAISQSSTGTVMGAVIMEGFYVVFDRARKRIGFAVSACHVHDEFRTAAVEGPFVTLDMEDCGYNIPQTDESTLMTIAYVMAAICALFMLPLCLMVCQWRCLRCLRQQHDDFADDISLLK

What was measured:
[1] = target: APP (construct of the co-IPs of Supplemental Figure 4, A and B, not shown) (UniProt P05067); test: co-IP; Supplemental Figure 4, A and B; format not shown
[2] = target: His-tagged USP25a catalytic domain (human) (UniProt Q9UHP3); test: co-IP; purified His-USP25a^Cat with BACE1-HA exogenously expressed in HEK293T cells; mouse IgG as negative control; only the target purified

binding [1]	binding [2]	Substance
binds	–	USP25 (construct of the co-IPs of Supplemental Figure 4, A-C, not shown) (from UniProt Q9UHP3 1-1055) (enzyme)
–	binds	BACE1-HA (from UniProt P56817 46-501) (enzyme)
